No constants are given. Whether binding was seen depends on the method and setting. Binding seen in cells or lysates may run through a third protein. These calls come from enrichment with a bait or labelling near it, and not all partners need be listed.
B1: NONO (protein, UniProt Q15233 1-471)
chain: MQSNKTFNLEKQNHTPRKHHQHHHQQQHHQQQQQQPPPPPIPANGQQASSQNEGLTIDLKNFRKPGEKTFTQRSRLFVGNLPPDITEEEMRKLFEKYGKAGEVFIHKDKGFGFIRLETRTLAEIAKVELDNMPLRGKQLRVRFACHSASLTVRNLPQYVSNELLEEAFSVFGQVERAVVIVDDRGRPSGKGIVEFSGKPAARKALDRCSEGSFLLTTFPRPVTVEPMDQLDDEEGLPEKLVIKNQQFHKEREQPPRFAQPGSFEYEYAMRWKALIEMEKQQQDQVDRNIKEAREKLEMEMEAARHEHQVMLMRQDLMRRQEELRRMEELHNQEVQKRKQLELRQEEERRRREEEMRRQQEEMMRRQQEGFKGTFPDAREQEIRMGQMAMGGAMGINNRGAMPPAPVPAGTPAPPGPATMMPDGTLGLTPPTTERFGQAATMEGIGAIGGTPPAFNRAAPGAEFAPNKRRRY
B2: RBM14 (protein, UniProt Q96PK6 1-669)
chain: MKIFVGNVDGADTTPEELAALFAPYGTVMSCAVMKQFAFVHMRENAGALRAIEALHGHELRPGRALVVEMSRPRPLNTWKIFVGNVSAACTSQELRSLFERRGRVIECDVVKDYAFVHMEKEADAKAAIAQLNGKEVKGKRINVELSTKGQKKGPGLAVQSGDKTKKPGAGDTAFPGTGGFSATFDYQQAFGNSTGGFDGQARQPTPPFFGRDRSPLRRSPPRASYVAPLTAQPATYRAQPSVSLGAAYRAQPSASLGVGYRTQPMTAQAASYRAQPSVSLGAPYRGQLASPSSQSAAASSLGPYGGAQPSASALSSYGGQAAAASSLNSYGAQGSSLASYGNQPSSYGAQAASSYGVRAAASSYNTQGAASSLGSYGAQAASYGAQSAASSLAYGAQAASYNAQPSASYNAQSAPYAAQQAASYSSQPAAYVAQPATAAAYASQPAAYAAQATTPMAGSYGAQPVVQTQLNSYGAQASMGLSGSYGAQSAAAATGSYGAAAAYGAQPSATLAAPYRTQSSASLAASYAAQQHPQAAASYRGQPGNAYDGAGQPSAAYLSMSQGAVANANSTPPPYERTRLSPPRASYDDPYKKAVAMSKRYGSDRRLAELSDYRRLSESQLSFRRSPTKSSLDYRRLPDAHSDYARYSGSYNDYLRAAQMHSGYQRRM
B3: XAB2 (protein, UniProt Q9HCS7 1-855)
chain: MVVMARLSRPERPDLVFEEEDLPYEEEIMRNQFSVKCWLRYIEFKQGAPKPRLNQLYERALKLLPCSYKLWYRYLKARRAQVKHRCVTDPAYEDVNNCHERAFVFMHKMPRLWLDYCQFLMDQGRVTHTRRTFDRALRALPITQHSRIWPLYLRFLRSHPLPETAVRGYRRFLKLSPESAEEYIEYLKSSDRLDEAAQRLATVVNDERFVSKAGKSNYQLWHELCDLISQNPDKVQSLNVDAIIRGGLTRFTDQLGKLWCSLADYYIRSGHFEKARDVYEEAIRTVMTVRDFTQVFDSYAQFEESMIAAKMETASELGREEEDDVDLELRLARFEQLISRRPLLLNSVLLRQNPHHVHEWHKRVALHQGRPREIINTYTEAVQTVDPFKATGKPHTLWVAFAKFYEDNGQLDDARVILEKATKVNFKQVDDLASVWCQCGELELRHENYDEALRLLRKATALPARRAEYFDGSEPVQNRVYKSLKVWSMLADLEESLGTFQSTKAVYDRILDLRIATPQIVINYAMFLEEHKYFEESFKAYERGISLFKWPNVSDIWSTYLTKFIARYGGRKLERARDLFEQALDGCPPKYAKTLYLLYAQLEEEWGLARHAMAVYERATRAVEPAQQYDMFNIYIKRAAEIYGVTHTRGIYQKAIEVLSDEHAREMCLRFADMECKLGEIDRARAIYSFCSQICDPRTTGAFWQTWKDFEVRHGNEDTIKEMLRIRRSVQATYNTQVNFMASQMLKVSGSATGTVSDLAPGQSGMDDMKLLEQRAEQLAAEAERDQPLRAQSKILFVRSDASREELAELAQQVNPEEIQLGEDEDEDEMDLEPNEVRLEQQSVPAAVFGSLKED
B4: ZNF281 (protein, UniProt Q9Y2X9 1-895)
chain: MKIGSGFLSGGGGTGSSGGSGSGGGGSGGGGGGGSSGRRAEMEPTFPQGMVMFNHRLPPVTSFTRPAGSAAPPPQCVLSSSTSAAPAAEPPPPPAPDMTFKKEPAASAAAFPSQRTSWGFLQSLVSIKQEKPADPEEQQSHHHHHHHHYGGLFAGAEERSPGLGGGEGGSHGVIQDLSILHQHVQQQPAQHHRDVLLSSSSRTDDHHGTEEPKQDTNVKKAKRPKPESQGIKAKRKPSASSKPSLVGDGEGAILSPSQKPHICDHCSAAFRSSYHLRRHVLIHTGERPFQCSQCSMGFIQKYLLQRHEKIHSREKPFGCDQCSMKFIQKYHMERHKRTHSGEKPYKCDTCQQYFSRTDRLLKHRRTCGEVIVKGATSAEPGSSNHTNMGNLAVLSQGNTSSSRRKTKSKSIAIENKEQKTGKTNESQISNNINMQSYSVEMPTVSSSGGIIGTGIDELQKRVPKLIFKKGSRKNTDKNYLNFVSPLPDIVGQKSLSGKPSGSLGIVSNNSVETIGLLQSTSGKQGQISSNYDDAMQFSKKRRYLPTASSNSAFSINVGHMVSQQSVIQSAGVSVLDNEAPLSLIDSSALNAEIKSCHDKSGIPDEVLQSILDQYSNKSESQKEDPFNIAEPRVDLHTSGEHSELVQEENLSPGTQTPSNDKASMLQEYSKYLQQAFEKSTNASFTLGHGFQFVSLSSPLHNHTLFPEKQIYTTSPLECGFGQSVTSVLPSSLPKPPFGMLFGSQPGLYLSALDATHQQLTPSQELDDLIDSQKNLETSSAFQSSSQKLTSQKEQKNLESSTGFQIPSQELASQIDPQKDIEPRTTYQIENFAQAFGSQFKSGSRVPMTFITNSNGEVDHRVRTSVSDFSGYTNMMSDVSEPCSTRVKTPTSQSYR
B5: NOL7 (protein, UniProt Q9UMY1 1-257)
chain: MVQLRPRASRAPASAEAMVDEGQLASEEEEAEHGLLLGQPSSGAAAEPLEEDEEGDDEFDDEAPEELTFASAQAEAREEERRVRETVRRDKTLLKEKRKRREELFIEQKKRKLLPDTILEKLTTASQTNIKKSPGKVKEVNLQKKNEDCEKGNDSKKVKVQKVQSVSQNKSYLAVRLKDQDLRDSRQQAAQAFIHNSLYGPGTNRTTVNKFLSLANKRLPVKRAAVQFLNNAWGIQKKQNAKRFKRRWMVRKMKTKK
B6: SYMPK (protein, UniProt Q92797 1-1274)
chain: MASGSGDSVTRRSVASQFFTQEEGPGIDGMTTSERVVDLLNQAALITNDSKITVLKQVQELIINKDPTLLDNFLDEIIAFQADKSIEVRKFVIGFIEEACKRDIELLLKLIANLNMLLRDENVNVVKKAILTMTQLYKVALQWMVKSRVISELQEACWDMVSAMAGDIILLLDSDNDGIRTHAIKFVEGLIVTLSPRMADSEIPRRQEHDISLDRIPRDHPYIQYNVLWEEGKAALEQLLKFMVHPAISSINLTTALGSLANIARQRPMFMSEVIQAYETLHANLPPTLAKSQVSSVRKNLKLHLLSVLKHPASLEFQAQITTLLVDLGTPQAEIARNMPSSKDTRKRPRDDSDSTLKKMKLEPNLGEDDEDKDLEPGPSGTSKASAQISGQSDTDITAEFLQPLLTPDNVANLVLISMVYLPEAMPASFQAIYTPVESAGTEAQIKHLARLMATQMTAAGLGPGVEQTKQCKEEPKEEKVVKTESVLIKRRLSAQGQAISVVGSLSSMSPLEEEAPQAKRRPEPIIPVTQPRLAGAGGRKKIFRLSDVLKPLTDAQVEAMKLGAVKRILRAEKAVACSGAAQVRIKILASLVTQFNSGLKAEVLSFILEDVRARLDLAFAWLYQEYNAYLAAGASGSLDKYEDCLIRLLSGLQEKPDQKDGIFTKVVLEAPLITESALEVVRKYCEDESRTYLGMSTLRDLIFKRPSRQFQYLHVLLDLSSHEKDKVRSQALLFIKRMYEKEQLREYVEKFALNYLQLLVHPNPPSVLFGADKDTEVAAPWTEETVKQCLYLYLALLPQNHKLIHELAAVYTEAIADIKRTVLRVIEQPIRGMGMNSPELLLLVENCPKGAETLVTRCLHSLTDKVPPSPELVKRVRDLYHKRLPDVRFLIPVLNGLEKKEVIQALPKLIKLNPIVVKEVFNRLLGTQHGEGNSALSPLNPGELLIALHNIDSVKCDMKSIIKATNLCFAERNVYTSEVLAVVMQQLMEQSPLPMLLMRTVIQSLTMYPRLGGFVMNILSRLIMKQVWKYPKVWEGFIKCCQRTKPQSFQVILQLPPQQLGAVFDKCPELREPLLAHVRSFTPHQQAHIPNSIMTILEASGKQEPEAKEAPAGPLEEDDLEPLTLAPAPAPRPPQDLIGLRLAQEKALKRQLEEEQKLKPGGVGAPSSSSPSPSPSARPGPPPSEEAMDFREEGPECETPGIFISMDDDSGLTEAALLDSSLEGPLPKETAAGGLTLKEERSPQTLAPVGEDAMKTPSPAAEDAREPEAKGNS

Amino acid sequences for entries named in this document (tags omitted).
UniProt P26368: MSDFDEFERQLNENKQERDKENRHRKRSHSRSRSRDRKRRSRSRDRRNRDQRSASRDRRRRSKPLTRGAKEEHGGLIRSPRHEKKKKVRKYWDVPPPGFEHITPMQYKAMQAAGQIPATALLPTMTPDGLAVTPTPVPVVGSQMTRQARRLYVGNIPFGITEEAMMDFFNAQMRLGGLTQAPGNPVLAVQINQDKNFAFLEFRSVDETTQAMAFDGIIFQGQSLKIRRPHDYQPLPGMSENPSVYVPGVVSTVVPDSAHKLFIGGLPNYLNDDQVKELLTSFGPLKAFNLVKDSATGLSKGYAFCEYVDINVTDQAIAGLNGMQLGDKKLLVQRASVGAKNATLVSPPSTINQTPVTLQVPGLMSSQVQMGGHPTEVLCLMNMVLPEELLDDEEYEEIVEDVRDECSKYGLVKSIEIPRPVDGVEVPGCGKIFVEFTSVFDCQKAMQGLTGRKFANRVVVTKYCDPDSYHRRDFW

Each binder was assayed against U2AF2-TurboID-HA (human) (UniProt P26368) (assay: proximity labelling; U2AF2-TurboID-HA induced with doxycycline for 4 h in mesoderm cells differentiated from hiPSC (CHIR99021, 24 h); biotinylated proteins purified on streptavidin magnetic beads, LC-MS with label-free quantification; hits: Log2ΔLFQ >= 2 and p <= 0.05, mesoderm against pluripotent U2AF2-TurboID samples or against GFP-TurboID).

Row | Binder | binding
1 | B1 | binds
2 | B2 | binds
3 | B3 | binds
4 | B4 | binds
5 | B5 | binds
6 | B6 | binds

Reference: publication PMC12124498
